Experimental data: patent US6696607B2 (priority 2000, dated 2004)
Some results were stated once for a whole list of compounds, not compound by compound.

Legend:
[1] = test system: Plasmopara viticola; assay: Efficacy against Plasmopara viticola on grapevines; format: in vivo; settings: 250 ppm active ingredient; grapevine leaves inoculated next day; undersides of leaves assessed visually; untreated plants 90%
[2] = test system: Phytophthora infestans; format: in vivo; settings: 250 ppm active ingredient; tomato leaves infected next day; assessed after 6 days; untreated plants 90%

| Compound | disease level [1] | disease level [2] |
| --- | --- | --- |
| CCC=C(C(=O)NCCc1ccc(OC)c(OC)c1)c1ccc(Cl)cc1 [I-16] | not more than 10% |  |
| CCC=C(C(=O)NCCc1ccc(OCC)c(OC)c1)c1ccc(C)cc1 [I-25] | not more than 10% | not more than 10% |
| CCOc1ccc(CCNC(=O)C(=C(Cl)Cl)c2ccc(Cl)c(Cl)c2)cc1OC [I-11] | not more than 10% | not more than 10% |
| CCOc1ccc(CCNC(=O)C(=C(C)C)c2ccc(Cl)cc2)cc1OC [I-49] | not more than 10% | not more than 10% |
| CCOc1ccc(CCNC(=O)C(=C(Cl)Cl)c2ccc(-c3ccccc3)cc2)cc1OC [I-42] | not more than 10% | not more than 10% |
| CCC=C(C(=O)NCCc1ccc(OCC)c(OC)c1)c1ccc(C)cc1F [I-30] | not more than 10% |  |
| CCOc1ccc(CCNC(=O)C(=C(Cl)Cl)c2ccc(Cl)c(Cl)c2)cc1OCC [I-12] | not more than 10% |  |
| COc1ccc(CCNC(=O)C(=C(Cl)Cl)c2ccc(Cl)cc2)cc1OC [I-1, 3,3-dichloro-2-(4-Chlorophenyl)-N-[2-(3,4-dimethoxy-phenyl)ethyl]acrylamide] | not more than 10% | not more than 10% |
| CC=C(C(=O)NCCc1ccc(OCC)c(OC)c1)c1ccc(Cl)cc1 [I-19] | not more than 10% | not more than 10% |
| CCOc1ccc(CCNC(=O)C(=C(Cl)Cl)c2ccc(Cl)cc2)cc1OC [I-2] | not more than 10% | not more than 10% |
| COc1ccc(CCNC(=O)C(=C(Cl)Cl)c2ccc(Cl)c(Cl)c2)cc1OC [I-10] | not more than 10% |  |
| CCC=C(C(=O)NCCc1ccc(OCC)c(OC)c1)c1ccccc1 [I-23] | not more than 10% |  |
| COc1ccc(CCNC(=O)C(=C(Cl)Cl)c2ccc(Br)cc2)cc1OC [I-46] | not more than 10% | not more than 10% |
| COc1ccc(CCNC(=O)C(=C(C)C)c2ccc(Cl)cc2)cc1OC [I-48] | not more than 10% |  |
| COc1ccc(CCNC(=O)C(=C(Cl)Cl)c2ccc(-c3ccccc3)cc2)cc1OC [I-43] | not more than 10% | not more than 10% |
| CCOc1ccc(CCNC(=O)C(=C(Cl)Cl)c2ccc(OC)cc2)cc1OC [I-34] | not more than 10% | not more than 10% |
| CC=C(C(=O)NCCc1ccc(OCC)c(OC)c1)c1ccc(C(F)(F)F)cc1 [I-21] | not more than 10% |  |
| CCC=C(C(=O)NCCc1ccc(OCC)c(OC)c1)c1ccc(F)cc1 [I-24] | not more than 10% |  |
| CCC=C(C(=O)NCCc1ccc(OCC)c(OC)c1)c1ccc(Cl)c(Cl)c1 [I-27] | not more than 10% | not more than 10% |
| CCC=C(C(=O)NCCc1ccc(OCC)c(OC)c1)c1ccc(Cl)cc1 [I-17] |  | not more than 10% |
| CCC=C(C(=O)NCCc1ccc(OCC)c(OC)c1)c1cccc(C)c1 [I-29] | not more than 10% |  |
| COc1ccc(CCNC(=O)C(=C(Cl)Cl)c2ccc(C(C)(C)C)cc2)cc1OC [I-40] | not more than 10% | not more than 10% |
| CCOc1ccc(CCNC(=O)C(=C(Cl)Cl)c2ccc(C(C)(C)C)cc2)cc1OC [I-39] | not more than 10% | not more than 10% |
| COc1ccc(C(C(=O)NCCc2ccc(OC)c(OC)c2)=C(Cl)Cl)cc1 [I-33] | not more than 10% | not more than 10% |
| CCC=C(C(=O)NCCc1ccc(OCC)c(OC)c1)c1ccc(C(F)(F)F)cc1 [I-26] | not more than 10% | not more than 10% |
| CC=C(C(=O)NCCc1ccc(OCC)c(OC)c1)c1ccc(C(C)(C)C)cc1 [I-22] | not more than 10% |  |
| CCC=C(C(=O)NCCc1ccc(OCC)c(OC)c1)c1ccc(Cl)cc1 [I-32] | not more than 10% |  |
